Reference: publication PMC13267291, “In vivo functional profiling and structural characterization of the human GLP1R A316T variant” (Science Advances, 2026)
These are yes or no findings as the source states them, for the method shown. In cells and extracts the contact can be indirect. Some results given as binding are weak or reduced against the parent protein; the word gives no strength.

Sequences of proteins named here, by UniProt entry; tags and fusion partners are left off. A change or cut given only in a name is not applied to a line headed by its entry. A line that says so, or that is headed by a name, gives the form on record, which may keep a tag or linker. Residues count along the entry.
hGLP1R^WT-SmBiT (P43220, residues 24-463): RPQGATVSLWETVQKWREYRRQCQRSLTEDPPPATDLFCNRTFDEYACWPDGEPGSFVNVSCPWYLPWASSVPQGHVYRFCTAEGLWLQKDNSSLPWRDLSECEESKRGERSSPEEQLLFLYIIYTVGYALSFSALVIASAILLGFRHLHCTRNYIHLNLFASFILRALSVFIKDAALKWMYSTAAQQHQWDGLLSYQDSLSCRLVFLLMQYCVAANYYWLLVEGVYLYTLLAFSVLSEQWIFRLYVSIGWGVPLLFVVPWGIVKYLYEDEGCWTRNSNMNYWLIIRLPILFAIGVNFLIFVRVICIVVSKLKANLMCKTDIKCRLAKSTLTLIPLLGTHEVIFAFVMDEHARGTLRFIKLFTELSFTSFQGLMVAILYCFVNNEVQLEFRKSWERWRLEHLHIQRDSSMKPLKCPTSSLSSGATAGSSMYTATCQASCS
hGLP1R^A316T-SmBiT (P43220, form named): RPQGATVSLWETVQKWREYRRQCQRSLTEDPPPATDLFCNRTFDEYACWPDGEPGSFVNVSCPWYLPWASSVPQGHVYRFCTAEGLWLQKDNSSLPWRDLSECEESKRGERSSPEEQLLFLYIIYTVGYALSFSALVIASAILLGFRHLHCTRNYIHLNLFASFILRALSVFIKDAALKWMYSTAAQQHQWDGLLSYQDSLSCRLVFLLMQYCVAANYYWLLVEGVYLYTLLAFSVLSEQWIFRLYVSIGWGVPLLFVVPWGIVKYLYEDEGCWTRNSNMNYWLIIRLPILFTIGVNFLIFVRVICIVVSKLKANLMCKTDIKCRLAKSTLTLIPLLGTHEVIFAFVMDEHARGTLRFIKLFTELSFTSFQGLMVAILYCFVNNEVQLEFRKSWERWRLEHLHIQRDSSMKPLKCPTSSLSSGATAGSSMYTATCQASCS

What was measured:
[1] = molecular target: hGLP1R^A316T-SmBiT (human) (UniProt P43220); assay: split reporter; NanoBiT complementation in live INS-1 832/3 Glp1r−/− cells cotransfected with hGLP1R^WT or ^A316T-SmBiT and LgBiT-mini-Gs or LgBiT–β-arrestin 2; HBSS with furimazine, 37°C; baseline (vehicle) and after GLP-1, exendin-4 or exendin-F1
hGLP1R^WT-SmBiT (human) = hGLP1R^WT-SmBiT (human) (UniProt P43220); assay: as above

- binding [1]: binds
- binding (hGLP1R^WT-SmBiT (human)): binds
Substance: LgBiT–β-arrestin 2 (from UniProt P32121 1-409)
